For three substances, binding results are on record in PMC6381116.

Results are given in words; binding and its absence hold for the method and conditions named. Binding seen in cells or lysates may run through a third protein. A yes stands for co-enrichment or nearness to the bait. Other partners may have been found.

For the experiment, the target named is T1, 3HA:AGO2 expressed from pAGO2:3HA:AGO2 in the ago2-1 mutant (Arabidopsis thaliana) (UniProt Q9SHF3).
T1 sequence: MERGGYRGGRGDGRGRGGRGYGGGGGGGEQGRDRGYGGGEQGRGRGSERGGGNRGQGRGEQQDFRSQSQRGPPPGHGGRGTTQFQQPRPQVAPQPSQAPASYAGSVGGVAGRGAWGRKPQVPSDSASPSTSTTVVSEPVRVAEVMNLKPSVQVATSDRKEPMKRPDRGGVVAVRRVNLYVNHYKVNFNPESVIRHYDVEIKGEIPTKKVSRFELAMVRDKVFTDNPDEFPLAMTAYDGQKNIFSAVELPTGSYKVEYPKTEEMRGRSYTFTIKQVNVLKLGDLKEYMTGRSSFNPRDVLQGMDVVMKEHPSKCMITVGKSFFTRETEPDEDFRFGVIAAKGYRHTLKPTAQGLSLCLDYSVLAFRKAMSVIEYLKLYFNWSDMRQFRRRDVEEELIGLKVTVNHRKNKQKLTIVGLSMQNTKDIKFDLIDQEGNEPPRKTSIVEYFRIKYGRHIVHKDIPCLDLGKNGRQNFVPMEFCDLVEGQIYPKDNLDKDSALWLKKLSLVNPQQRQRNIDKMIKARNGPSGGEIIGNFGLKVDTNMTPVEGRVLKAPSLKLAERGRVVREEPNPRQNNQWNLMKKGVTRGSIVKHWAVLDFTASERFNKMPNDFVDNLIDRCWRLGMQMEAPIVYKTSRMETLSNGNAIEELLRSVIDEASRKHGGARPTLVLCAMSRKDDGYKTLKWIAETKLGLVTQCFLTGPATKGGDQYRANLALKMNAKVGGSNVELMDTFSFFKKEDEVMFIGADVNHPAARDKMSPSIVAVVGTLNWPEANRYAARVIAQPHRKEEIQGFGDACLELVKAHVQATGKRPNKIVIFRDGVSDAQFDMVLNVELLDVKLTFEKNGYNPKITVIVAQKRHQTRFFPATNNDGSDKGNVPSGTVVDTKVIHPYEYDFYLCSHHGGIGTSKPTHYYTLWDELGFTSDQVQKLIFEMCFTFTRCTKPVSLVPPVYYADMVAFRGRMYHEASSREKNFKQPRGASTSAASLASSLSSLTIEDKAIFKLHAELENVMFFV
The experiment in a line: affinity purification with mass spectrometry; anti-HA immunoprecipitation from pAGO2:3HA:AGO2/ago2-1 plants treated with Pst (avrRpt2); pAGO7:gus plants as negative control; SDS-PAGE, in-gel trypsin digest, LC-MS/MS, label-free quantification.
As to “PRMT5 (protein arginine methyltransferase5), endogenous (enzyme)”, the binding entry was “binds”.
In the case of HSP70, endogenous it was “binds”.
The entry for HSP90, endogenous is “binds”.
